Assay results taken from PMC11589570, “Critical assessment of LC3/GABARAP ligands used for degrader development and ligandability of LC3/GABARAP binding pockets” (Nature Communications, 2024).
Values joined by “and” are separate entries in the source; they are usually repeats but may differ in a detail not shown here. Equal values may be shown once. The source gives many values for each of these; only a part stands here.

Test system: U2OS cells
Assay: Cell growth assay (IncuCyte confluence over 72 h)
Assay type: cell-based
Parameters: key: % of well area covered by cells (confluence)
Conditions: listed as 10O5
How it was run: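 U2OS cells were grown in DMEM with 10% FBS for 24 h before treatment. Confluence was then tracked by IncuCyte phase imaging over 72 h and expressed as % of well area covered by cells. Each point is the average of three wells.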

O=C1Nc2ccc(I)cc2C1=Cc1cc(Br)c(O)c(Br)c1 [compound 4]
U2OS cell growth (3 uM, time 12 h): 40.3933 and 47.5715 | U2OS cell growth (3 uM, time 14 h): 40.9146 and 42.4095 and 46.7299 | U2OS cell growth (3 uM, time 16 h): 48.6545 and 50.5058 and 56.9939 | U2OS cell growth (3 uM, time 18 h): 46.383 and 47.4183 and 52.8398 | U2OS cell growth (3 uM, time 20 h): 45.5953 and 50.3197 and 57.1312 | U2OS cell growth (3 uM, time 22 h): 54.2587 and 50.5906 and 56.1778 | U2OS cell growth (3 uM, time 24 h): 49.3937 and 47.3898 and 56.8872 | U2OS cell growth (3 uM, time 26 h): 52.4755 and 55.3333 and 63.7832 | U2OS cell growth (3 uM, time 28 h): 54.708 and 58.8517 and 64.0279 | U2OS cell growth (3 uM, time 30 h): 57.9913 and 59.0886 and 65.3867 | U2OS cell growth (3 uM, time 32 h): 50.0039 and 62.5265 and 70.3863 | U2OS cell growth (3 uM, time 34 h): 58.6735 and 60.7998 and 66.6879 | U2OS cell growth (3 uM, time 36 h): 65.7566 and 69.7518 and 75.9995 | U2OS cell growth (3 uM, time 38 h): 63.7792 and 69.3951 and 76.8777 | U2OS cell growth (3 uM, time 40 h): 72.9944 and 75.258 and 82.4626 | U2OS cell growth (3 uM, time 42 h): 74.3243 and 75.8149 and 82.292 | U2OS cell growth (3 uM, time 44 h): 76.4482 and 77.9741 and 86.1804 | U2OS cell growth (3 uM, time 46 h): 73.5583 and 77.0284 and 79.321 | U2OS cell growth (3 uM, time 48 h): 80.2552 and 82.0383 and 89.0914 | U2OS cell growth (3 uM, time 50 h): 77.3392 and 78.4525 and 89.8375 | U2OS cell growth (3 uM, time 52 h): 80.5636 and 84.5844 and 92.5718 | U2OS cell growth (3 uM, time 54 h): 79.8246 and 85.0806 and 90.7633 | U2OS cell growth (3 uM, time 56 h): 86.0206 and 89.2174 and 94.3255 | U2OS cell growth (3 uM, time 58 h): 80.9144 and 90.9376 and 95.487 | U2OS cell growth (3 uM, time 60 h): 90.7253 and 93.5567 and 97.5358 | U2OS cell growth (3 uM, time 62 h): 91.4306 and 94.7191 and 98.0212 | U2OS cell growth (3 uM, time 64 h): 91.7465 and 95.1789 and 97.9067 | U2OS cell growth (3 uM, time 66 h): 91.472 and 96.2512 and 98.2278 | U2OS cell growth (3 uM, time 68 h): 92.0442 and 97.3153 and 98.538 | U2OS cell growth (3 uM, time 70 h): 95.563 and 97.9133 and 99.5812 | U2OS cell growth (3 uM, time 72 h): 96.2189 and 98.3819 and 99.5553 | U2OS cell growth (5 uM, time 12 h): 41.5945 and 38.107 and 44.6887 | U2OS cell growth (5 uM, time 14 h): 42.5008 and 38.1079 and 39.3573 | U2OS cell growth (5 uM, time 16 h): 50.9744 and 41.3957 and 53.3145 | U2OS cell growth (5 uM, time 18 h): 48.9415 and 43.9969 and 52.58 | U2OS cell growth (5 uM, time 20 h): 48.6684 and 42.3366 and 50.5588 | U2OS cell growth (5 uM, time 22 h): 54.1128 and 49.142 and 52.8209 | U2OS cell growth (5 uM, time 24 h): 52.6615 and 48.5016 and 56.8778 | U2OS cell growth (5 uM, time 26 h): 57.9395 and 52.7691 and 58.135 | U2OS cell growth (5 uM, time 28 h): 60.7106 and 52.9898 and 61.8699 | U2OS cell growth (5 uM, time 30 h): 61.8812 and 54.3593 and 62.709 | U2OS cell growth (5 uM, time 32 h): 57.6364 and 56.2779 and 65.0716 | U2OS cell growth (5 uM, time 34 h): 63.5223 and 58.7092 and 65.0622 | U2OS cell growth (5 uM, time 36 h): 69.4287 and 63.2015 and 69.982 | U2OS cell growth (5 uM, time 38 h): 71.824 and 61.2462 and 70.38 | U2OS cell growth (5 uM, time 40 h): 74.0138 and 65.4881 and 75.2701 | U2OS cell growth (5 uM, time 42 h): 74.612 and 66.8247 and 75.4771 | U2OS cell growth (5 uM, time 44 h): 78.1824 and 69.242 and 78.4744 | U2OS cell growth (5 uM, time 46 h): 79.1644 and 69.3671 and 78.4477 | U2OS cell growth (5 uM, time 48 h): 80.7281 and 72.6872 and 81.2898 | U2OS cell growth (5 uM, time 50 h): 82.2925 and 72.7627 and 80.4822 | U2OS cell growth (5 uM, time 52 h): 84.7048 and 77.3288 and 85.0115 | U2OS cell growth (5 uM, time 54 h): 85.3093 and 77.4144 and 84.8043 | U2OS cell growth (5 uM, time 56 h): 87.123 and 79.1589 and 88.3874 | U2OS cell growth (5 uM, time 58 h): 89.2307 and 83.3243 and 90.1566 | U2OS cell growth (5 uM, time 60 h): 91.6425 and 85.251 and 92.1104 | U2OS cell growth (5 uM, time 62 h): 92.7659 and 86.8499 and 93.8025 | U2OS cell growth (5 uM, time 64 h): 92.554 and 87.4549 and 94.6119 | U2OS cell growth (5 uM, time 66 h): 93.7627 and 89.6413 and 94.2806 | U2OS cell growth (5 uM, time 68 h): 95.1361 and 89.5041 and 95.9309 | U2OS cell growth (5 uM, time 70 h): 95.6942 and 91.3841 and 94.5801 | U2OS cell growth (5 uM, time 72 h): 96.4852 and 92.6609 and 98.1277 | U2OS cell growth (10 uM, time 12 h): 32.536 and 40.0639 and 48.1529 | U2OS cell growth (10 uM, time 14 h): 32.247 and 42.8271 and 49.1718 | U2OS cell growth (10 uM, time 16 h): 37.5553 and 46.1317 and 54.8753 | U2OS cell growth (10 uM, time 18 h): 37.4657 and 47.6272 and 56.1926 | U2OS cell growth (10 uM, time 20 h): 38.7326 and 47.4055 and 57.0088 | U2OS cell growth (10 uM, time 22 h): 39.7622 and 51.4521 and 59.9978 | U2OS cell growth (10 uM, time 24 h): 42.1096 and 53.6167 and 60.9289 | U2OS cell growth (10 uM, time 26 h): 43.4453 and 57.2891 and 63.7092 | U2OS cell growth (10 uM, time 28 h): 45.1185 and 57.2332 and 66.0065 | U2OS cell growth (10 uM, time 30 h): 46.3437 and 57.1579 and 66.5001 | U2OS cell growth (10 uM, time 32 h): 49.7047 and 61.5367 and 69.5882 | U2OS cell growth (10 uM, time 34 h): 49.942 and 59.425 and 68.4571 | U2OS cell growth (10 uM, time 36 h): 56.0947 and 64.6299 and 72.6348 | U2OS cell growth (10 uM, time 38 h): 53.7931 and 65.5316 and 73.1188 | U2OS cell growth (10 uM, time 40 h): 55.9633 and 67.281 and 76.365 | U2OS cell growth (10 uM, time 42 h): 58.3821 and 68.9853 and 79.3765 | U2OS cell growth (10 uM, time 44 h): 62.8173 and 70.6817 and 81.7808 | U2OS cell growth (10 uM, time 46 h): 63.0586 and 71.9052 and 81.5978 | U2OS cell growth (10 uM, time 48 h): 66.7143 and 74.8794 and 86.1006 | U2OS cell growth (10 uM, time 50 h): 68.4152 and 76.0558 and 85.7427 | U2OS cell growth (10 uM, time 52 h): 70.6127 and 77.5502 and 87.278 | U2OS cell growth (10 uM, time 54 h): 71.8781 and 77.544 and 89.6058 | U2OS cell growth (10 uM, time 56 h): 73.7808 and 79.5773 and 89.8946 | U2OS cell growth (10 uM, time 58 h): 78.3188 and 83.1021 and 91.9761 | U2OS cell growth (10 uM, time 60 h): 80.8925 and 84.9228 and 91.941 | U2OS cell growth (10 uM, time 62 h): 82.3316 and 85.8762 and 93.6542 | U2OS cell growth (10 uM, time 64 h): 82.513 and 86.3593 and 93.8134 | U2OS cell growth (10 uM, time 66 h): 84.2508 and 86.8187 and 94.2739 | U2OS cell growth (10 uM, time 68 h): 86.1402 and 89.1597 and 95.5012 | U2OS cell growth (10 uM, time 70 h): 88.3142 and 90.3834 and 95.9118 | U2OS cell growth (10 uM, time 72 h): 89.6628 and 91.8421 and 96.8848
